The values that follow come from patent US20200055942A1.

The chains behind the UniProt entries cited, without tags or fusion partners. Where a name states a change or a piece, a line headed by the entry shows the natural chain unless it says otherwise.
UniProt P16109: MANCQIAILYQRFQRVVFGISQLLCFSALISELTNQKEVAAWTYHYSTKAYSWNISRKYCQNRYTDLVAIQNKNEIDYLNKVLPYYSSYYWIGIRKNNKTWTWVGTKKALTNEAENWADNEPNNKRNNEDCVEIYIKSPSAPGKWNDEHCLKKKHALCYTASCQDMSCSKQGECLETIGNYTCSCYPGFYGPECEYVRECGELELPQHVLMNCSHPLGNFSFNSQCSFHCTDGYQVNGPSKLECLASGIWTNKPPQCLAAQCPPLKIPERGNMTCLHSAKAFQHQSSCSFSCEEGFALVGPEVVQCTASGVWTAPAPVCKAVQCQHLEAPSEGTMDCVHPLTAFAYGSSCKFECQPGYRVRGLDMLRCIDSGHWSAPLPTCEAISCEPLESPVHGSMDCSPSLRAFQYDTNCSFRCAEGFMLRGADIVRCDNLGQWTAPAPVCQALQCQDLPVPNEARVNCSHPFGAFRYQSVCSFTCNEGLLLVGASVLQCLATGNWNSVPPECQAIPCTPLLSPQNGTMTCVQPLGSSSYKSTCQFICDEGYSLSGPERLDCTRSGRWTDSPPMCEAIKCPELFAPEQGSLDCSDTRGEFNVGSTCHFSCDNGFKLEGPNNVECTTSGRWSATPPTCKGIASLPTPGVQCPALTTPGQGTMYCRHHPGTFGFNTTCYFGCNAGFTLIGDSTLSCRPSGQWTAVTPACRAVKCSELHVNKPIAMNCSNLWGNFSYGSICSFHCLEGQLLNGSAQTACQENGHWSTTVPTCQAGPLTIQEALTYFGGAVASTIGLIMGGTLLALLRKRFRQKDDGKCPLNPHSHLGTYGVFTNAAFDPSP

No constants are given. Whether binding was seen depends on the method and setting. Some results given as binding are weak or reduced against the parent protein; the word gives no strength.

The experiment has as its target P-selectin (Homo sapiens (Human)) (UniProt P16109). As to the kind of experiment: SPR inhibition assay on patient serum (ex vivo pharmacodynamics); blocks PSGL-1.

B1: SelG1 (Crizanlizumab) (antibody, human IgG2, kappa, V domains shown)
VH: QVQLVQSGAEVKKPGASVKVSCKVSGYTFTSYDINWVRQAPGKGLEWMGWIYPGDGSIKYNEKFKGRVTMTVDKSTDTAYMELSSLRSEDTAVYYCARRGEYGNYEGAMDYWGQGTLVTVSS
VL: DIQMTQSPSSLSASVGDRVTITCKASQSVDYDGHSYMNWYQQKPGKAPKLLIYAASNLESGVPSRFSGSGSGTDFTLTISSLQPEDFATYYCQQSDENPLTFGGGTKVEIKR
B1: the binding result is “binds”.
